Where a name gives a salt, the structure may show the parent alone. Some well-known active drugs show little effect in this data set, so a weak value is uncertain.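 All three lines are high-grade serous ovarian cancer cells differing in chemosensitivity, with OVCAR3 described as the chemosensitive one. Toxicity was scaled between DMSO vehicle wells and fully lysed wells, the score derives from a fitted multi-dose response curve, and the authors counted a score above 5 as drug sensitivity.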

Among the test systems are OVCAR3; Kuramochi; OVCAR4.
Holding throughout (test): drug sensitivity score (DSS2, cytotoxicity, CellTox Green); higher = more cytotoxic / more sensitive; extreme values may be limits of the assay
Common to all, as to conditions: 72 h; doses 0.5, 1, 5 µM

On to `COc1nc(N)nc2c1ncn2[C@@H]1O[C@H](CO)[C@@H](O)[C@@H]1O` [Nelarabine], for which the drug sensitivity score with OVCAR3, with Kuramochi and in the test on OVCAR4 was 0 DSS throughout.
As for `COc1cccc2c1C(=O)c1c(O)c3c(c(O)c1C2=O)C[C@@](O)(C(C)=O)C[C@@H]3O[C@H]1C[C@H](N)[C@H](O)[C@H](C)O1` [Daunorubicin (hydrochloride)], the drug sensitivity score with OVCAR3, in the test on Kuramochi and with OVCAR4 was 0 DSS throughout.
For the molecule `Clc1ccccc1C(c1ccccc1)(c1ccccc1)n1ccnc1` [Clotrimazole], the drug sensitivity score in the test on OVCAR3, in the test on Kuramochi and in the test with OVCAR4 was 0 DSS each time.
For the molecule `COc1cc(C2Oc3cc([C@H]4Oc5cc(O)cc(O)c5C(=O)[C@@H]4O)ccc3OC2CO)ccc1O` (stereo partly drawn) [Silibinin], the drug sensitivity score with OVCAR3 came out at 6.6 DSS; in the test with Kuramochi, 1.2 DSS; in the test with OVCAR4 it was 0 DSS.
The matching figures for `Cc1ccc(=O)n(-c2ccccc2)c1` [Pirfenidone]: 0 DSS, 0 DSS and 0 DSS.
The like results for `CO[C@@H]1[C@@H](OC(N)=O)[C@@H](O)[C@H](Oc2ccc3c(O)c(NC(=O)c4ccc(O)c(CC=C(C)C)c4)c(=O)oc3c2C)OC1(C)C` [Novobiocin (Sodium)] were, in that order, 0 DSS, 0 DSS and 0 DSS.
The matching figures for `COc1cccc2c1C(=O)c1c(O)c3c(c(O)c1C2=O)C[C@@](O)(C(=O)CO)C[C@@H]3O[C@H]1C[C@H](N)[C@H](O[C@@H]2CCCCO2)[C@H](C)O1` [Pirarubicin (Hydrochloride)]: 0 DSS, 0 DSS and 0 DSS.
On to `CCCC(CCC)C(=O)O` [Valproic acid], for which the drug sensitivity score with OVCAR3, in the test on Kuramochi and in the test on OVCAR4 was 0 DSS each time.
`COc1cc2c(cc1OC(C)C)[C@H](c1ccc(Cl)cc1)N(c1ccc(N(C)C[C@H]3CC[C@H](N4CCN(C)C(=O)C4)CC3)cc1)C(=O)C2` [NVP-CGM097]: the drug sensitivity score in the test on OVCAR3, in the test with Kuramochi and with OVCAR4 was 0 DSS each time.
Turning to `NC(=O)CCC(N)C(=O)O` (racemic) [DL-Glutamine], the drug sensitivity score with OVCAR3, in the test on Kuramochi and in the test on OVCAR4 was 0 DSS in each case.
Turning to `C[C@H](N[C@@H](CCc1ccccc1)C(=O)O)C(=O)N1CCC[C@H]1C(=O)O` [Enalaprilat (dihydrate)], the drug sensitivity score in the test with OVCAR3, in the test with Kuramochi and in the test on OVCAR4 was 0 DSS throughout.
Take `COc1ccc2cc3[n+](cc2c1OC)CCc1cc2c(cc1-3)OCO2` [Berberine (chloride hydrate)]: the drug sensitivity score in the test with OVCAR3, with Kuramochi and in the test with OVCAR4 was 0 DSS each time.
With `CC(C)c1nc(N(C)S(C)(=O)=O)nc(-c2ccc(F)cc2)c1/C=C/[C@@H](O)C[C@@H](O)CC(=O)O` [Rosuvastatin (Calcium)], the drug sensitivity score in the test with OVCAR3, in the test on Kuramochi and with OVCAR4 was 0 DSS each time.
Take `CC/C(=C(\c1ccccc1)c1ccc(OCCN(C)C)cc1)c1ccccc1` [Tamoxifen]: the drug sensitivity score in the test with OVCAR3, in the test with Kuramochi and with OVCAR4 was 0 DSS throughout.
For the molecule `COc1ccc2cc1Oc1ccc(cc1)C[C@H]1c3c(cc4c(c3Oc3cc5c(cc3OC)CCN(C)[C@@H]5C2)OCO4)CCN1C` [Cepharanthine], the drug sensitivity score in the test on OVCAR3, with Kuramochi and with OVCAR4 was 0 DSS in each case.
With `Cc1c(C)c2c(c(C)c1O)CCC(C)(COc1ccc(CC3SC(=O)NC3=O)cc1)O2` (stereo not drawn) [Troglitazone], the drug sensitivity score in the test on OVCAR3, in the test on Kuramochi and with OVCAR4 was 0 DSS in each case.
Turning to `CO[C@H]1C[C@@H]2CC[C@@H](C)[C@@](O)(O2)C(=O)C(=O)N2CCCC[C@H]2C(=O)O[C@H]([C@H](C)C[C@@H]2CC[C@@H](OCCO)[C@H](OC)C2)CC(=O)[C@H](C)/C=C(\C)[C@@H](O)[C@@H](OC)C(=O)[C@H](C)C[C@H](C)/C=C/C=C/C=C/1C` [Everolimus], the drug sensitivity score in the test on OVCAR3, with Kuramochi and in the test with OVCAR4 was 0 DSS in each case.
`CCCOc1ccc(C(=O)OCCN(CC)CC)cc1N` [Proparacaine (Hydrochloride)]: the drug sensitivity score in the test with OVCAR3, in the test on Kuramochi and in the test with OVCAR4 was 0 DSS in each case.
On to `CC(=O)c1c(C)c2cnc(Nc3ccc(N4CCNCC4)cn3)nc2n(C2CCCC2)c1=O` [Palbociclib (monohydrochloride)], for which the drug sensitivity score in the test with OVCAR3, in the test on Kuramochi and in the test on OVCAR4 was 0 DSS in each case.
For the molecule `COc1cc2/c(=N/c3ccc(Br)cc3F)nc[nH]c2cc1OCC1CCN(C)CC1` [Vandetanib], the drug sensitivity score with OVCAR3, in the test on Kuramochi and with OVCAR4 was 0 DSS each time.
For `CCOC(=O)[C@H](CCc1ccccc1)N[C@@H](C)C(=O)N1[C@H](C(=O)O)C[C@@H]2CCC[C@@H]21` [Ramipril], the drug sensitivity score in the test on OVCAR3 and in the test with OVCAR4 was 0 DSS in each case.
On to `CCN(C(=O)c1c(O)c2c(Cl)cccc2n(C)c1=O)c1ccccc1` [Laquinimod], for which the drug sensitivity score in the test with OVCAR3, in the test with Kuramochi and with OVCAR4 was 0 DSS each time.
Consider `CC(=NNC(=S)N1CCC1)c1ccccn1`, for which the drug sensitivity score in the test on OVCAR3, with Kuramochi and in the test on OVCAR4 was 0 DSS in each case.
Regarding `O=C(O)c1cc(/N=N/c2ccc(S(=O)(=O)Nc3ccccn3)cc2)ccc1O` [Sulfasalazine], the drug sensitivity score with OVCAR3, in the test with Kuramochi and in the test on OVCAR4 was 0 DSS each time.
For `COc1cc2ncnc(Nc3ccc(F)c(Cl)c3)c2cc1NC(=O)/C=C/CN1CCCCC1` [Dacomitinib], the drug sensitivity score turned out to be 0.1 DSS in the test with OVCAR3, 0 DSS in the test on Kuramochi and 0 DSS in the test with OVCAR4.
As for `Cc1c(C)c2c(c(C)c1O)CC[C@@](C)(CCC[C@H](C)CCC[C@H](C)CCCC(C)C)O2` [α-Vitamin E], the drug sensitivity score with OVCAR3, with Kuramochi and in the test on OVCAR4 was 0 DSS throughout.
For the molecule `CNCc1ccc(-c2[nH]c3cc(F)cc4c3c2CCNC4=O)cc1` [Rucaparib], the drug sensitivity score with OVCAR3, in the test on Kuramochi and with OVCAR4 was 0 DSS in each case.
Take `COC1=CC(=O)C[C@@H](C)[C@]12Oc1c(Cl)c(OC)cc(OC)c1C2=O` [Griseofulvin]: the drug sensitivity score in the test with OVCAR3, in the test with Kuramochi and in the test on OVCAR4 was 0 DSS each time.
As for `O=C1c2c(O)ccc(O)c2C(=O)c2c(NCCNCCO)ccc(NCCNCCO)c21` [Mitoxantrone], the drug sensitivity score in the test on OVCAR3, with Kuramochi and with OVCAR4 was 0 DSS in each case.
Consider `CC#C[C@]1(O)CC[C@H]2[C@@H]3CCC4=CC(=O)CCC4=C3[C@@H](c3ccc(N(C)C)cc3)C[C@@]21C` [Mifepristone], for which the drug sensitivity score in the test on OVCAR3, in the test with Kuramochi and in the test on OVCAR4 was 0 DSS each time.
As to `COCCOC(=O)C1=C(C)NC(C)=C(C(=O)OC(C)C)C1c1cccc([N+](=O)[O-])c1` (stereo not drawn) [Nimodipine], the drug sensitivity score in the test with OVCAR3, in the test on Kuramochi and in the test on OVCAR4 was 0 DSS each time.
Take `CC(C)=CCC/C(C)=C/CC/C(C)=C/C=C/C(C)=C/C(=O)O` [Peretinoin]: the drug sensitivity score with OVCAR3, in the test with Kuramochi and in the test on OVCAR4 was 0 DSS in each case.
Consider `Cc1ccc(NC(=O)c2ccc(CN3CCN(C)CC3)cc2)cc1Nc1nccc(-c2cccnc2)n1` [Imatinib (Mesylate)], for which the drug sensitivity score with OVCAR3 and with OVCAR4 was 0 DSS in each case.
On to `N#C[C@@H]1CCCN1C(=O)CNC12CC3CC(CC(O)(C3)C1)C2` [Vildagliptin], for which the drug sensitivity score in the test with OVCAR3 and with OVCAR4 was 0 DSS throughout.
Regarding `CCCCC(=O)N(Cc1ccc(-c2ccccc2-c2nn[nH]n2)cc1)[C@H](C(=O)O)C(C)C.CCOC(=O)[C@H](C)C[C@@H](Cc1ccc(-c2ccccc2)cc1)NC(=O)CCC(=O)O` [Sacubitril/Valsartan], the drug sensitivity score with OVCAR3 and in the test on OVCAR4 was 0 DSS in each case.
With `Nc1ccn([C@@H]2O[C@H](CO)[C@@H](O)[C@@H]2O)c(=O)n1` [Cytarabine (hydrochloride)], the drug sensitivity score in the test on OVCAR3 and in the test with OVCAR4 was 0 DSS throughout.
Regarding `CCN(CC)CCCC(C)Nc1ccnc2cc(Cl)ccc12` (stereo not drawn) [Chloroquine (phosphate)], the drug sensitivity score in the test with OVCAR3 and with OVCAR4 was 0 DSS each time.
On to `Nc1ccn([C@@H]2O[C@H](CO)[C@@H](O)[C@@H]2O)c(=O)n1` [Cytarabine], for which the drug sensitivity score in the test on OVCAR3 and in the test with OVCAR4 was 0 DSS in each case.
With `CCN(CC)CCCC(C)Nc1ccnc2cc(Cl)ccc12` (stereo not drawn) [Chloroquine], the drug sensitivity score in the test with OVCAR3 and in the test with OVCAR4 was 0 DSS in each case.
Take `Cc1ccc(NC(=O)c2ccc(CN3CCN(C)CC3)cc2)cc1Nc1nccc(-c2cccnc2)n1` [Imatinib]: the drug sensitivity score with OVCAR3 and in the test on OVCAR4 was 0 DSS each time.
Turning to `CN(C)CCCC1(c2ccc(F)cc2)OCc2cc(C#N)ccc21` (stereo not drawn) [Citalopram (hydrobromide)], the drug sensitivity score in the test with OVCAR3 and with OVCAR4 was 0 DSS throughout.

(Values after the supplement of paper PMC12593923.)
